Data as given in paper PMC11835246.
No constants are given. Whether binding was seen depends on the method and setting.

Sequences of proteins named here, by UniProt entry; tags and fusion partners are left off. A change or cut given only in a name is not applied to a line headed by its entry. Residues count along the entry.
UniProt P04146, residues 1-185: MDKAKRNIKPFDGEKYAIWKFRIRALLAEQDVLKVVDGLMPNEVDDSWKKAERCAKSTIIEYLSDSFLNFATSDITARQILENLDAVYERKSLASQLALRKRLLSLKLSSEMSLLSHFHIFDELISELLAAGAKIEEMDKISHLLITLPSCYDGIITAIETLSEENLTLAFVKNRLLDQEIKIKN

Molecular target: Copia^GagΔNC (Drosophila melanogaster) (UniProt P04146)
Assay: SEC; Superose 6 Increase 10/300 GL after overnight Ulp1 digestion; 25 mM HEPES pH 7.4, 150 mM NaCl, 10% glycerol, 100 uM ZnCl2, 500 mM imidazole, 2 mM 2-mercaptoethanol; assembled capsids elute at fraction 7, unassembled protein at fractions 24 to 26; both purified

- binding: no binding
Substance: Copia^GagΔNC (from UniProt P04146 1-185) (domain or fragment)
